Measurements: patent publication US8394969B2, “Cyclic benzimidazole derivatives useful as anti-diabetic agents” (Merck Sharp & Dohme Corp., priority 2008, dated 2013)
Counter-ions that a name gives are not always drawn. Some entries share one result that the patent states for a list of compounds.

Amino acid sequences for entries named in this document (tags omitted). A change or cut given only in a name is not applied to a line headed by its entry.
UniProt Q13131: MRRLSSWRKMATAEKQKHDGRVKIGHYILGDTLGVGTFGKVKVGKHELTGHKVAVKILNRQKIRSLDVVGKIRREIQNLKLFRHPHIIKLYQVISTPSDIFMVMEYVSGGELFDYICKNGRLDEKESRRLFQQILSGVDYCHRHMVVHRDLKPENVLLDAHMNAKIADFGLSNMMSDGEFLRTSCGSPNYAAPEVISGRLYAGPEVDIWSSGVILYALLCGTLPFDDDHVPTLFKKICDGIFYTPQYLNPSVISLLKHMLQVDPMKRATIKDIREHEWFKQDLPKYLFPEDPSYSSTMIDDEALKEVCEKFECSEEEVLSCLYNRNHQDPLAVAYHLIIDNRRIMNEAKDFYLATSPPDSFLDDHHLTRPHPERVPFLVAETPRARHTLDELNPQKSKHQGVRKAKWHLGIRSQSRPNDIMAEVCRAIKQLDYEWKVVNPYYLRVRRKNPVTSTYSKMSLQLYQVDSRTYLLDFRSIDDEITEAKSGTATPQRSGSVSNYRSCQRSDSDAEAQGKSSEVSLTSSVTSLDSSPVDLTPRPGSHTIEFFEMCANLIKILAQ
UniProt Q9Y478: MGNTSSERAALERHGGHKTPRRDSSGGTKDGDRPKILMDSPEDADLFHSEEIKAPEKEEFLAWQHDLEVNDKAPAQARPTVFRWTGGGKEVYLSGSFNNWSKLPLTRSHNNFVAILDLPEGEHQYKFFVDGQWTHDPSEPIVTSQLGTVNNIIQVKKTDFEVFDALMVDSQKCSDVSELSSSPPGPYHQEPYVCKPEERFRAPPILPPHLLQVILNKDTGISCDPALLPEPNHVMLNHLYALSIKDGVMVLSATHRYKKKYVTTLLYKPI

Target: recombinant human AMPK complex 1 (containing α1β1γ1) (Homo sapiens, UniProt Q13131+Q9Y478)
Assay: […] (in vitro AMPK activation assay)
Assay type: biochemical
Conditions: recombinant human AMPK complex 1 (α1β1γ1); for % Maximum AMP Activation of human AMPK Complex 1: basal activity subtracted

Cc1ccc(Oc2nc3cc(-c4cnc(N5CCCC5)cn4)c(F)cc3[nH]2)cc1C(=O)O [Example 250, 5-[6-Fluoro-5-(5-pyrrolidin-1-yl-pyrazin-2-yl)-1H-benzoimidazol-2-yloxy]-2-methyl-benzoic acid] showed an EC50 of less than 10 µM.

With Cc1ccc(Oc2nc3cc(-c4ccc(C5CC5)cc4)c(Cl)cc3[nH]2)cc1C(=O)O [Example 251, 5-[6-Chloro-5-(4-cyclopropyl-phenyl)-1H-benzoimidazol-2-yloxy]-2-methyl-benzoic acid] the EC50 was less than 10 µM and the “% Maximum AMP Activation of human AMPK Complex 1” value was “greater than 80%”.

Cc1ccc(Oc2nc3cc(-c4ccc5c(ccn5CC5CC5)c4)c(Cl)cc3[nH]2)cc1C(=O)O [Example 252, 5-[6-Chloro-5-(1-cyclopropylmethyl-1H-indol-5-yl)-1H-benzoimidazol-2-yloxy]-2-methyl-benzoic acid] was tested, and the EC50 was less than 10 µM.

CCn1ccc2cc(-c3cc4nc(Oc5ccc(C)c(C(=O)O)c5)[nH]c4cc3Cl)ccc21 [Example 254, 5-[6-Chloro-5-(1-ethyl-1H-indol-5-yl)-1H-benzoimidazol-2-yloxy]-2-methyl-benzoic acid] showed an EC50 of less than 10 µM.

In the case of COc1cc(-c2cc3nc(Oc4ccc(C)c(C(=O)O)c4)[nH]c3cc2Cl)ccc1O [Example 255, 2-(3-carboxy-4-methylphenoxy)-6-chloro-5-(4-hydroxy-3-methoxyphenyl)-1H-3,1-benzimidazol-3-ium trifluoroacetate], the EC50 is reported as less than 10 µM.

In the case of Cc1ccc(Oc2nc3cc(-c4cnc(N5CCCC5)nc4)c(Cl)cc3[nH]2)cc1C(=O)O [Example 257, 2-(3-carboxy-4-methylphenoxy)-6-chloro-5-(2-pyrrolidin-1-yl-pyrimidin-5-yl)-1H-3,1-benzimidazol-3-ium trifluoroacetate], the EC50 is reported as less than 10 µM.

Cc1ccc(Oc2nc3cc(-c4ccc(C5CCCC5)cc4)c(Cl)cc3[nH]2)cc1C(=O)O [Example 258, 2-(3-carboxy-4-methylphenoxy)-6-chloro-5-(4-cyclopentylphenyl)-1H-3,1-benzimidazol-3-ium trifluoroacetate] was tested, and the EC50 was less than 10 µM.

With Cc1ccc(Oc2nc3cc(-c4ccc(N5CCCC5)cc4)c(Cl)cc3[nH]2)cc1C(=O)O.O=C(O)C(F)(F)F [Example 259, 2-(3-carboxy-4-methylphenoxy)-6-chloro-5-(4-pyrrolidin-1-ylphenyl)-1H-3,1-benzimidazol-3-ium trifluoroacetate] the “% Maximum AMP Activation of human AMPK Complex 1” value was “greater than 80%”.

COc1ccc(-c2cc3nc(Oc4ccc(C)c(C(=O)O)c4)[nH]c3cc2Cl)cc1OC [Example 260, 2-(3-carboxy-4-methylphenoxy)-6-chloro-5-(3,4-dimethoxyphenyl)-1H-3,1-benzimidazol-3-ium trifluoroacetate] was tested, and the EC50 was less than 10 µM.

Cc1cc2cc(-c3cc4nc(Oc5ccc(C)c(C(=O)O)c5)[nH]c4cc3Cl)ccc2[nH]1 [Example 261, 5-{[6-chloro-5-(2-methyl-1H-indol-5-yl)-1H-benzimidazol-2-yl]oxy}-2-methylbenzoic acid] showed an EC50 of less than 10 µM.

Compound Cc1ccc(Oc2nc3cc(-c4ccc(C5(CO)CC5)cc4)c(Cl)cc3[nH]2)cc1C(=O)O [Example 262, 5-[(6-chloro-5-{4-[1-(hydroxymethyl)cyclopropyl]phenyl}-1H-benzimidazol-2-yl)oxy]-2-methylbenzoic acid] has an EC50 of less than 10 µM.

In the case of Cc1ccc(Oc2nc3cc(-c4ccc5c(ccn5CCO)c4)c(Cl)cc3[nH]2)cc1C(=O)O [Example 263, 5-({6-chloro-5-[1-(2-hydroxyethyl)-1H-indol-5-yl]-1H-benzimidazol-2-yl}oxy)-2-methylbenzoic acid], the EC50 is reported as less than 10 µM.

With Cc1ccc(Oc2nc3cc(-c4ccc(C5(O)CC5)cc4)c(Cl)cc3[nH]2)cc1C(=O)O [Example 264, 5-{6-Chloro-5-[4-(1-hydroxy-cyclopropyl)-phenyl]-1H-benzoimidazol-2-yloxy}-2-methyl-benzoic acid] the EC50 was less than 10 µM.

For Cc1ccc(Oc2nc3cc(-c4ccc5c(C)noc5c4)c(Cl)cc3[nH]2)cc1C(=O)O [Example 265, 5-[6-chloro-5-(3-methyl-benzo[d]isoxazol-6-yl)-1H-benzoimidazol-2-yloxy]-2-methyl-benzoic acid], the EC50 was less than 10 µM.
